test system: Mytilus galloprovincialis plantigrade larvae; assay: Mussel (Mytilus galloprovincialis) larvae anti-settlement bioassay; format: in vivo
Method: Mussel (Mytilus galloprovincialis) plantigrades were collected in juvenile aggregates during low neap tides at Memória beach, Matosinhos, Portugal (41°13′59″ N; 8°43′28″ W). In laboratory, mussel plantigrade larvae (0.5–2 mm) were isolated in a binocular magnifier (Olympus SZX2-ILLT, Tokyo, Japan) to a petri dish with filtered seawater, and those with functional foot and competent exploring behaviour were selected for the bioassays. The flavonoids were screened at 50 µM in 24-well microplates with 4 well replicates per condition and 5 larvae per well, for 15 h, in the darkness at 18 ± 1 °C, following Almeida et al. (2015). Test solutions were obtained by dilution of the compounds stock solutions (50 mM) in DMSO and prepared with filtered seawater. All bioassays included a negative control with DMSO and a positive control with CuSO4, a potent AF agent. After the exposure period, the anti-settlement activity was determined by the presence/absence of attached byssal threads produced by each individual larvae.
All compounds that caused more than 60% of settlement inhibition (≤40% of settlement) in the screening bioassay were considered active and selected for the determination of the semi-maximum response concentration that inhibited 50% of larval settlement (EC50), at compounds concentrations of 3.12, 6.25, 12.5, 25, 50, 100, 200 μM.
Datasets from anti-settlement, antibacterial and anti-microalgal bioassay, and determination of AChE and Tyr activities, were analysed by one-way analysis of variance (ANOVA) followed by a multi-comparisons Dunnett’s test against negative control (p < 0.05). For the AF bioassays, the half maximum response concentration (EC50) values for each compound, when applicable, were calculated using Probit regression analysis. Significance was considered at p < 0.01, and 95% lower and upper confidence limits (95%LCL; UCL). The software IBM SPSS Statistics 26 (Armonk, New York, USA) was used for statistical analysis.

**Q.** How did the “LC50/EC50 (therapeutic ratio)” value turn out when `COc1ccc(-c2cc(=O)c3c(O)cc(OCc4cn(CCO[C@@H]5O[C@H](COC(C)=O)[C@@H](OC(C)=O)[C@H](OC(C)=O)[C@H]5OC(C)=O)nn4)cc3o2)cc1OC` [4a, (2R,3R,4S,5R,6R)-2-(acetoxymethyl)-6-(2-(4-(((2-(3,4-dimethoxyphenyl)-5-hydroxy-4-oxo-4H-chromen-7-yl)oxy)methyl)-1H-1,2,3-triazol-1-yl)ethoxy)tetrahydro-2H-pyran-3,4,5-triyl triacetate] was run?
**A.** > 4.70

**Q.** `COc1ccc(/C=C/C(=O)c2ccc(O)cc2O)cc1OC` [11a] was tested. Which “LC50/EC50 (therapeutic ratio)” value did it give?
**A.** > 11.05

**Q.** With `C#CCOc1ccc(C(=O)/C=C/c2ccc(OC)c(OC)c2)c(O)c1` [6a] as the compound, how does the “LC50/EC50 (therapeutic ratio)” value read?
**A.** > 2.37

**Q.** With `COc1cc(-c2cc(=O)c3c(O)cc(OCc4cn(CCO[C@@H]5O[C@H](COC(C)=O)[C@@H](OC(C)=O)[C@H](OC(C)=O)[C@H]5OC(C)=O)nn4)cc3o2)cc(OC)c1OC` [4b, (2R,3R,4S,5R,6R)-2-(acetoxymethyl)-6-(2-(4-(((5-hydroxy-4-oxo-2-(3,4,5-trimethoxyphenyl)-4H-chromen-7-yl)oxy)methyl)-1H-1,2,3-triazol-1-yl)ethoxy)tetrahydro-2H-pyran-3,4,5-triyl triacetate] as the compound, how does the “LC50/EC50 (therapeutic ratio)” value read?
**A.** > 4.15

**Q.** `C#CCOc1ccc(C(=O)/C=C/c2cc(OC)c(OC)c(OC)c2)c(O)c1` [6b] was tested. Which “LC50/EC50 (therapeutic ratio)” value did it give?
**A.** > 2.34

**Q.** `COc1ccc(/C=C/C(=O)c2ccc(OCc3cn(CCO[C@@H]4O[C@H](COC(C)=O)[C@@H](OC(C)=O)[C@H](OC(C)=O)[C@H]4OC(C)=O)nn3)cc2O)cc1OC` [8a, (2R,3R,4S,5R,6R)-2-(acetoxymethyl)-6-(2-(4-((4-((E)-3-(3,4-dimethoxyphenyl)acryloyl)-3-hydroxyphenoxy)methyl)-1H-1,2,3-triazol-1-yl)ethoxy)tetrahydro-2H-pyran-3,4,5-triyl triacetate] was tested. Which “LC50/EC50 (therapeutic ratio)” value did it give?
**A.** > 5.58

**Q.** How did the “LC50/EC50 (therapeutic ratio)” value turn out when `COc1cc(-c2cc(=O)c3c(O)cc(O)cc3o2)cc(OC)c1OC` [1b] was run?
**A.** > 23.98

**Q.** `COc1cc(/C=C/C(=O)c2ccc(O)cc2O)cc(OC)c1OC` [11b] was tested. Which “LC50/EC50 (therapeutic ratio)” value did it give?
**A.** > 20.75

**Q.** With `COc1cc(/C=C/C(=O)c2ccc(OCc3cn([C@@H]4O[C@H](COC(C)=O)[C@@H](OC(C)=O)[C@H](OC(C)=O)[C@H]4OC(C)=O)nn3)cc2O)cc(OC)c1OC` [7b, (2R,3R,4S,5R,6R)-2-(acetoxymethyl)-6-(4-((3-hydroxy-4-((E)-3-(3,4,5-trimethoxyphenyl)acryloyl)phenoxy)methyl)-1H-1,2,3-triazol-1-yl)tetrahydro-2H-pyran-3,4,5-triyl triacetate] as the compound, how does the “LC50/EC50 (therapeutic ratio)” value read?
**A.** > 60.98

**Q.** How did the “LC50/EC50 (therapeutic ratio)” value turn out when `COc1cc(/C=C/C(=O)c2ccc(OCc3cn(CCO[C@H]4O[C@H](COC(C)=O)[C@@H](OC(C)=O)[C@H](OC(C)=O)[C@@H]4OC(C)=O)nn3)cc2O)cc(OC)c1OC` [8b, (2R,3R,4S,5S,6S)-2-(acetoxymethyl)-6-(2-(4-((3-hydroxy-4-((E)-3-(3,4,5-trimethoxyphenyl)acryloyl)phenoxy)methyl)-1H-1,2,3-triazol-1-yl)ethoxy)tetrahydro-2H-pyran-3,4,5-triyl triacetate] was run?
**A.** > 3.71
